# Measurements: paper PMC9579051
# Amino acid sequences for entries named in this document (tags omitted).
# UniProt P09144: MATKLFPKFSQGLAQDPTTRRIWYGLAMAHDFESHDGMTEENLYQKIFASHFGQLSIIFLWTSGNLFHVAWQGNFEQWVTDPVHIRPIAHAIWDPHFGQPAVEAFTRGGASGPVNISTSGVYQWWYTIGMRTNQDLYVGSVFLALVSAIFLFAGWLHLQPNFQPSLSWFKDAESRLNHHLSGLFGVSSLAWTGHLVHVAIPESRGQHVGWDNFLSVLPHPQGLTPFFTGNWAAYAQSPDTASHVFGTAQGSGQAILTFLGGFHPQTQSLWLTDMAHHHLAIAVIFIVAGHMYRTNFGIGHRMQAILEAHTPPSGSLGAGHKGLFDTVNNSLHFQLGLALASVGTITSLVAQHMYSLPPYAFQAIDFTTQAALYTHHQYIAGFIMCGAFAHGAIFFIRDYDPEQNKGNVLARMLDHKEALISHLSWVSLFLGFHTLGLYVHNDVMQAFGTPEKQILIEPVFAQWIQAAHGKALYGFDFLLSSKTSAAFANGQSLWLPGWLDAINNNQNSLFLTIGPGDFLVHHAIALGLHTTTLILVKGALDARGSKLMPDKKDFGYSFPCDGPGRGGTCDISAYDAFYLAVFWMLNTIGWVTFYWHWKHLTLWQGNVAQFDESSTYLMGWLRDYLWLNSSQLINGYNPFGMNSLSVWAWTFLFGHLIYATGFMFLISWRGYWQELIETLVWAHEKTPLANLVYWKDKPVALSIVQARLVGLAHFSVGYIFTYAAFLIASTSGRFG
# Results are given in words; binding and its absence hold for the method and conditions named. In cells and extracts the contact can be indirect. Some entries that bind do so weakly or less than the wild type.
# B1: PsaD (protein, UniProt Q39615 36-196)
# chain: EAEAAPAAAKKAAEKPAWTVPTLNPDTPSPIFGGSTGGLLRKAQTEEFYVITWEAKKEQIFEMPTGGAAIMRQGPNLLKFGKKEQCLALTTQLRNKFKLTPCFYRVFPDGKVQYLHPADGVYPEKVNAGRVGANQNMRRIGQNVNPIKVKFSGRMMSPAEI
# B2: PsaG (protein, UniProt P14224 31-126)
# chain: ALDPQIVISGSTAAFLAIGRFVFLGYQRREANFDSTVGPKTTGATYFDDLQKNSTIFATNDPAGFNIIDVAGWGALGHAVGFAVLAINSLQGANLS
# B3: PsaF (protein, UniProt P12356 63-227)
# chain: DIAGLTPCSESKAYAKLEKKELKTLEKRLKQYEADSAPAVALKATMERTKARFANYAKAGLLCGNDGLPHLIADPGLALKYGHAGEVFIPTFGFLYVAGYIGYVGRQYLIAVKGEAKPTDKEIIIDVPLATKLAWQGAGWPLAAVQELQRGTLLEKEENITVSPR
# Molecular target: PsaB fused with His20-tag after the third residue from the N-terminus (Chlamydomonas reinhardtii) (UniProt P09144)
# Assay: pull-down; His20-PsaB from α-DDM solubilized thylakoids on a TALON metal affinity column, eluted with 150 mM imidazole, then sucrose density gradient; SDS-PAGE and Western blot of elution, monomer and dimer fractions
row,Binder,binding
1,B1,binds
2,B2,binds
3,B3,binds
